# Whole data set: some 1,600 compounds, median “plate-normalized OD600 growth (mean of duplicates)” near 0.31, cut for the lowest 2% near 0.23. Some of the results follow.
# System: Escherichia coli BW25113
# Experiment: plate-normalized OD600 growth (mean of duplicates) (OD600 (normalized)); higher = more growth (less inhibition)
# Conditions: 10 µM
# Procedure: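 E. coli BW25113 in LB (100 µl, 96-well, no shaking) was exposed to 10 µM of each compound (here the ChemBridge subset of a ~30,000-member library) and grown at 37°C for 24 h or 15°C for 48 h, in duplicate. Growth was read as OD600 and the duplicate ODs were normalized across screening plates to correct plate-to-plate variation.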
Structure (SMILES),"plate-normalized OD600 growth (temperature: 15°C, 48 h)","plate-normalized OD600 growth (temperature: 37°C, 24 h)"
N#Cc1ccc(-n2nnc3ccccc32)cc1C#N,0.25,0.613
COc1cccc(OC)c1C(=O)Nc1ccc(C)cc1C,0.232,0.626
CC(=O)C1=C(O)C(=O)N(CC(=O)O)C1c1ccccc1F (stereo unspecified),0.25,0.63
N#C/C(=C/C=C/c1ccccc1)c1nc(-c2ccc(F)cc2)cs1,0.266,0.627
Cc1ccc(NC(=O)C2=C(O)CCn3c2nc2ccccc23)cc1,0.244,0.59
COc1ccc(C2=CSC3=NCCN23)cc1F,0.25,0.598
Cc1sc(NC(=O)c2ccc3c(c2)OCO3)c(C#N)c1C,0.253,0.624
O=[N+]([O-])c1ccc(CN2CCN(C/C=C/c3ccccc3)CC2)o1,0.23,0.621
Cc1nc([N+](=O)[O-])cn1CC(=O)Nc1ccc(Cl)cc1,0.251,0.604
CC(C1CC1)N1C(=O)C2C(C1=O)C1C=CC2C12CC2 (stereo unspecified),0.235,0.631
O=C1c2ccccc2C(=O)N1CCc1c[nH]c2ccc(O)cc12,0.248,0.62
O=C(O)c1ccc(NS(=O)(=O)c2cccc(C(=O)Nc3cccc([N+](=O)[O-])c3)c2)cc1,0.231,0.595
CN1C(=O)CC(N2CCN(C(=O)c3ccccc3)CC2)C1=O (stereo unspecified),0.255,0.626
Nn1cnc2scc(-c3ccc(Cl)cc3)c2c1=O,0.24,0.617
COc1cc(OC)cc(C(=O)Nc2cccc(C)c2C)c1,0.253,0.63
COc1ccc(NC(=O)c2ccc(C)cc2)c(OC)c1,0.24,0.633
O=C(Nc1ccccc1)c1cccc(S(=O)(=O)NCc2ccccc2)c1,0.246,0.616
O=C(Nc1ccc(Br)cc1)c1cccnc1,0.244,0.633
CC(C)(C)C(=O)ON1C(=O)c2ccccc2C1=O,0.25,0.616
COc1ccc(NC2CC(=O)N(c3cccc(Br)c3)C2=O)cc1 (stereo unspecified),0.248,0.611
CN(C)c1ccc2c(c1)OC(N)=C(C#N)C2c1ccc(F)c(Br)c1 (stereo unspecified),0.244,0.6
COc1cccc(N2CCN(Cc3ccco3)CC2)c1,0.237,0.613
CSc1nc(N)c2c3c(sc2n1)CCC3,0.252,0.62

Structure (SMILES),"plate-normalized OD600 growth (temperature: 15°C, 48 h)","plate-normalized OD600 growth (temperature: 37°C, 24 h)"
CCC1CCC(NCCN2CCOCC2)CC1 (stereo unspecified),0.255,0.62
N#Cc1c(-c2ccccc2)cc(-c2ccccc2)nc1SCC(=O)O,0.231,0.59
COc1cc(C)c(N)cc1C(C)C,0.226,0.6
N#Cc1nc(-c2ccccc2)cc(-c2ccccc2)n1,0.261,0.634
O=C(Nc1cccc2c1CCCC2)c1ccccc1F,0.243,0.609
O=C1c2ccccc2C(=O)N1CC(=O)N(Cc1ccccc1)c1cccc([N+](=O)[O-])c1,0.241,0.604
CCOCc1ccc(O)c2ncccc12,0.258,0.615
O=C(Nc1ccccc1O)c1ccc([N+](=O)[O-])cc1,0.236,0.621
COc1ccc(OC)c(Nc2nc3nonc3n3nnnc23)c1,0.232,0.62
COc1ccc(-c2nocc2C#N)cc1,0.251,0.64
O=C1c2cccc([N+](=O)[O-])c2C(=O)N1n1cnnc1,0.258,0.629
O=C(NCc1ccccc1)NC(=O)c1cccnc1,0.256,0.605
Cc1ccc([N+](=O)[O-])cc1NS(=O)(=O)c1cc(Cl)ccc1Cl,0.236,0.586
COc1ccc(OC)c(NC(=O)c2c(OC)cccc2OC)c1,0.255,0.618
O=C(O)CCC(=O)Nc1ccc(I)cc1,0.241,0.586
COc1cc(C)c(CN2CCN(c3ccc([N+](=O)[O-])cc3)CC2)cc1C,0.239,0.607
N#Cc1c(NC(=O)c2cc3ncc(Br)cn3n2)sc2c1CCCC2,0.263,0.623
NC(=O)c1cccc(NC(=O)Nc2ccc(Cl)cc2)c1,0.249,0.602
O=C(COc1ccc(Br)cc1)NC1CCCC1,0.25,0.6
CC(=O)n1c2ccccc2c2c1c1ccccc1n2C,0.25,0.591
CC(C)CCNC(=O)C1CC(=O)N(c2ccc(F)cc2)C1 (stereo unspecified),0.239,0.606
OC1CCN(Cc2cc(Br)cs2)CC1,0.26,0.659
Cc1cc(Cl)ccc1OCCCC(=O)NN1CCOCC1,0.284,0.634

# A second format for part of the listing above.
Structure (SMILES)	plate-normalized OD600 growth (temperature: 15°C, 48 h)	plate-normalized OD600 growth (temperature: 37°C, 24 h)
N#Cc1c(-c2ccccc2)cc(-c2ccccc2)nc1SCC(=O)O	0.231	0.59
COc1ccc(OC)c(Nc2nc3nonc3n3nnnc23)c1	0.232	0.62
COc1ccc(-c2nocc2C#N)cc1	0.251	0.64
CC(C)CCNC(=O)C1CC(=O)N(c2ccc(F)cc2)C1 (stereo unspecified)	0.239	0.606
OC1CCN(Cc2cc(Br)cs2)CC1	0.26	0.659
Cc1cc(Cl)ccc1OCCCC(=O)NN1CCOCC1	0.284	0.634

# Later entries

Structure (SMILES),"plate-normalized OD600 growth (temperature: 15°C, 48 h)","plate-normalized OD600 growth (temperature: 37°C, 24 h)"
c1ccc(N2CCN(CC3CCCCC3)CC2)cc1,0.255,0.654
COc1cc(OC)c(C2C(C#N)=C(N)Oc3cc(N)ccc32)cc1Br (stereo unspecified),0.23,0.62
Cc1sc(-c2c(C#N)c(N)nc3c2CCCCC3)cc1[N+](=O)[O-],0.271,0.631
OCCN1C2=NCCCN2c2ccccc21,0.244,0.616
Cc1cccc(NC(=O)COc2ccc(C)c(C)c2)c1,0.237,0.601
O=C(Nc1ccccc1)N1CCN(c2ccc([N+](=O)[O-])cc2)CC1,0.256,0.63
O=C(c1cccc(Br)c1)n1cnc2ccccc21,0.244,0.631
COc1ccc(-c2cc(=O)n(CCC#N)[nH]2)cc1,0.266,0.622
O=C(COc1ccc([N+](=O)[O-])cc1)NCCc1ccccc1,0.244,0.624
CCN(CC)CCN(C)Cc1cccc([N+](=O)[O-])c1,0.245,0.601
Oc1ccc(C2CC3CCC2C3)cc1O (stereo unspecified),0.263,0.65
COc1cc2c(cc1OC)C(c1ccccc1)=NCC2,0.241,0.611
CCOC(=O)N1CCN(Cc2cc(C)ccc2C)CC1,0.266,0.646
CC(C)(C)c1ccc(Cn2c(N)nc3ccccc32)cc1,0.26,0.583
CCOc1ccc2cc(C=O)c(=O)[nH]c2c1,0.246,0.613
N#Cc1c(N)nc(SCC(=O)c2ccc(Br)cc2)c(C#N)c1-c1ccc(O)cc1,0.267,0.653
c1cncc(-c2nc3c4c5c(sc4ncn3n2)CCCC5)c1,0.261,0.628
CCCN1CCC(NC23CC4CC(CC(C4)C2)C3)CC1,0.25,0.633
CC(=O)C1=C(C)OC(N)=C(C#N)C1c1cc2c(cc1[N+](=O)[O-])OCO2 (stereo unspecified),0.245,0.617
O=C(C(Cc1ccc([N+](=O)[O-])cc1)N1C(=O)c2ccccc2C1=O)N1CCCCC1 (stereo unspecified),0.242,0.598
O=S(=O)(Cc1ccccc1)NCC1CCCO1 (stereo unspecified),0.251,0.623
c1ccc2[nH]c(SCCN3CCCCC3)nc2c1,0.244,0.616

# Reference: the supplement of paper PMC4371806
